Paper PMC10372406

Target: FAM122A-HA (human)
Assay: co-IP; FAM122A with B55-FL or B56-FL subunits in transfected 293T lysates, done in both directions (Fig. S5B); the text gives one result for each pair

binding	Binder
binds	PP2A regulatory subunit B55β, FLAG-tagged (B55-FL) (protein, UniProt Q00005 1-443) MEEDIDTRKINNSFLRDHSYATEADIISTVEFNHTGELLATGDKGGRVVIFQREQESKNQVHRRGEYNVYSTFQSHEPEFDYLKSLEIEEKINKIRWLPQQNAAYFLLSTNDKTVKLWKVSERDKRPEGYNLKDEEGRLRDPATITTLRVPVLRPMDLMVEATPRRVFANAHTYHINSISVNSDYETYMSADDLRINLWNFEITNQSFNIVDIKPANMEELTEVITAAEFHPHHCNTFVYSSSKGTIRLCDMRASALCDRHTKFFEEPEDPSNRSFFSEIISSISDVKFSHSGRYIMTRDYLTVKVWDLNMENRPIETYQVHDYLRSKLCSLYENDCIFDKFECVWNGSDSVIMTGSYNNFFRMFDRNTKRDVTLEASRENSKPRAILKPRKVCVGGKRRKDEISVDSLDFSKKILHTAWHPSENIIAVAATNNLYIFQDKVN
binds	PP2A regulatory subunit B55γ, FLAG-tagged (B55-FL) (protein, UniProt Q9Y2T4 1-447) MGEDTDTRKINHSFLRDHSYVTEADIISTVEFNHTGELLATGDKGGRVVIFQREPESKNAPHSQGEYDVYSTFQSHEPEFDYLKSLEIEEKINKIKWLPQQNAAHSLLSTNDKTIKLWKITERDKRPEGYNLKDEEGKLKDLSTVTSLQVPVLKPMDLMVEVSPRRIFANGHTYHINSISVNSDCETYMSADDLRINLWHLAITDRSFNIVDIKPANMEDLTEVITASEFHPHHCNLFVYSSSKGSLRLCDMRAAALCDKHSKLFEEPEDPSNRSFFSEIISSVSDVKFSHSGRYMLTRDYLTVKVWDLNMEARPIETYQVHDYLRSKLCSLYENDCIFDKFECAWNGSDSVIMTGAYNNFFRMFDRNTKRDVTLEASRESSKPRAVLKPRRVCVGGKRRRDDISVDSLDFTKKILHTAWHPAENIIAIAATNNLYIFQDKVNSDMH

No constants are given. Whether binding was seen depends on the method and setting. Binding seen in cells or lysates may run through a third protein. Binding can be weak; no strength is given. Where a sequence is shown, tags or fusion partners need not be part of it.
